Experiment [1] deals with T1, phospholipase A2 (PLA2) (Homo sapiens (Human)) (UniProt O15496).
T1 sequence: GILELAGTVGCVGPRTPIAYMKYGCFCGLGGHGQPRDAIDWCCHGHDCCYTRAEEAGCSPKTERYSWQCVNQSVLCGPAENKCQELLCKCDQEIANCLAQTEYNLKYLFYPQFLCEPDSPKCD
The experiment in a line: dot blot / SPOTs peptide array of PLA2.

The target of experiment [2] is T1, phospholipase A2 (PLA2) (Homo sapiens (Human)). Kind of experiment: SPOTs array of overlapping 12-mer PLA2 peptides.

These are yes or no findings as the source states them, for the method shown. Some results given as binding are weak or reduced against the parent protein; the word gives no strength.

We go through one molecule from patent US20050058649A1.

B1: anti-PLA2 mAb 2.23 (antibody, IgG4, V domains shown)
VH: QVQLEESGGGVVQPGRSLRLSCAASGFTFSSYGMHWVRQGPGKGLEWVAVIWYDGSNKKYADSVKGRFTISRDNSKNTLYLQMNSLRAEDTAVYYCARDGPIFGVVMGYWGQGTLVTVSS
VL: DIQMTQSPSSLSASVGDRVTITCRTSQSISNYLNWFQQKPGKAPILLIYAASSLQSGVPSRFSGSGSGTDFTLTISSLQPEDFATYYCHQSYSIPITFGQGTRLEIKR
For the molecule B1, the binding result in experiment [1] and in experiment [2] was “binds” each time.
